Measurements as given in PubChem BioAssay AID493014 (National Center for Advancing Translational Sciences (NCATS), 2011).
The list shows a part of the results. The main result of the screen is listed elsewhere. These columns were measured beside it and carry no call. Most of these compounds were active or inconclusive in the main read-out, so they are no random draw. Words in brackets tell the shape of the fitted curve; partial curves, single points and poor fits give uncertain potencies.

Test: qHTS Assay to Find Inhibitors of Chronic Active B-Cell Receptor Signaling
Settings: ABC-DLBCL IkBa-CBG/CBR reporter, luminescence ratio (green luciferase fused to IkBa over red control in TMD8 lymphoma cells), 4 h
Method in brief: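 Cell line TMD8 (human ABC DLBCL), stably expressing tet-inducible CBG68-IkBa fusion and CBR; IMDM/0.5% FBS; cpd up to 46 uM; dox induction, 4 h, 37C/5% CO2; dual luminescence; green/red ratio; MG132 control.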

[1] = measured here: CBR red luminescence, cell number
[2] = measured here: IkBa-CBG green luminescence

Row | Structure (SMILES) | AC50 [1] | AC50 [2]
1 | COC(=O)[C@@]12OC[C@]34[C@H]([C@@H](O)[C@@H]1O)[C@@]1(C)C(=O)C(O[C@@H]5OC(CO)[C@@H](O)[C@@H](O)[C@@H]5O)=C[C@@H](C)[C@@H]1C[C@H]3OC(=O)[C@H](OC(=O)/C=C(\C)C(C)(C)OC(C)=O)[C@@H]24 (some centres not stated) | 4.61 µM [falling, full curve] | 7.31 µM [rising, partial curve, poor fit]
2 | Cc1cc(Cl)c2oc(C(=O)N(C)Cc3cc(C)[nH]n3)c(C)c2c1 | 0.141 µM [rising, full curve, poor fit] | 
3 | COc1ccc(-c2n[nH]c(=S)n2-c2ccc3c(c2)OCCO3)cc1 | 29.1 µM [rising, single point] | 
4 | COc1ccc(C)cc1NC(=O)c1cc2c(s1)CCC2 | 1.84 µM [rising, partial curve, poor fit] | 
5 | c1ccc2c(c1)nc(N1CCOCC1)c1nnnn12 | 4.11 µM [falling, full curve] | 
6 | O=C(c1ccccc1O)N1N=C(C(F)(F)F)CC1(O)c1ccc([N+](=O)[O-])cc1 (configuration not stated) | 22.4 µM [falling, single point] | 
7 | CC(=O)Nc1ccc(Sc2ncccc2C(=O)Nc2ccc(OC(F)(F)F)cc2)cn1 | 6.51 µM [falling, full curve, poor fit] | 
8 | Cc1ccc(Cn2nc(C)c(NC(=O)c3cc(C)no3)c2C)cc1 | 0.731 µM [falling, full curve, poor fit] | 
9 | O=C(O)CCc1ccc(-c2ccc(Br)cc2)o1 | 35.5 µM [falling, single point] | 
10 | COc1ccc(C(=O)Nc2nc(N)n(-c3ccccc3)n2)cc1OC | 6.31 µM [rising, partial curve, poor fit] | 
11 | CCOC(=O)C1=C(N)Oc2ccc3ccccc3c2C1c1ccc(O)c(OC)c1 (configuration not stated) | 35.5 µM [falling, single point] | 14.1 µM [falling, partial curve, poor fit]
12 | CNC(=O)C1CC(=O)N(CCCc2ccccc2)C(=Nc2ccccc2)S1 (configuration not stated) | 11.6 µM [falling, partial curve, poor fit] | 
13 | Cc1cccc(C(=O)NCC(=O)OCCOc2ccccc2Cl)c1 | 25.9 µM [rising, single point] | 
14 | COc1ccc(OC(=O)NCCc2ccccc2)cc1 | 35.5 µM [falling, single point] | 
15 | COc1ccc(OCCCC(=O)Nc2nc(-c3ccccn3)cs2)cc1 |  | 25.1 µM [falling, single point]
16 | COc1ccc(-n2nnnc2SCC(=O)c2cccc(OC)c2)cc1 |  | 29.1 µM [falling, single point]
17 | O=C(O)c1ccc(/C=N/n2cc(-c3ccccc3)[nH]c2=S)cc1 | 10 µM [falling, partial curve, poor fit] | 
18 | CN(C)CC(c1ccccc1)c1ccccc1 | 2.82 µM [falling, full curve, poor fit] | 
19 | O=C(NCc1ccncc1)c1cc(-c2ccc(Cl)cc2)oc1C(F)(F)F | 12.6 µM [rising, partial curve, poor fit] | 
20 | CCOC(=O)N1CCC(NC(=O)c2ccc3c(c2)N(Cc2ccccc2)CCS3)CC1 | 5.8 µM [falling, single point] | 
21 | Cn1c(=O)n(C)c2cc(N3CCOCC3)c(NC(=O)c3cccc(Cl)c3)cc21 | 2.82 µM [rising, partial curve, poor fit] | 

Row | Structure (SMILES) | AC50 [1] | AC50 [2]
22 | CC(=O)N1CCN(S(=O)(=O)c2c(F)cc(F)c(Cl)c2F)CC1 | 35.5 µM [rising, partial curve, poor fit] | 
23 | COc1cc(/C=C\C(=O)OCn2nnc3ccccc3c2=O)cc(OC)c1OC | 6.31 µM [rising, partial curve] | 12.6 µM [falling, partial curve, poor fit]
24 | Cc1ccc(-n2nc(C)c3c(C)cc(=O)[nH]c32)cc1 | 18.4 µM [falling, single point] | 
25 | CCOc1cccc(CN2CCCC(C(=O)Nc3cccc(-n4cccn4)c3)C2)c1 (configuration not stated) | 15.8 µM [falling, single point] | 
26 | COCCN1C=C2C(=O)C(C)(OC(=O)c3cccs3)C(=O)C=C2C=C1CCCC(=O)OC (configuration not stated) | 0.316 µM [rising, full curve, poor fit] | 
27 | Cc1ccc(C(=O)c2nocc2C(=O)c2cccs2)cc1 | 14.1 µM [rising, partial curve, poor fit] | 
28 | CCc1nnc(NS(=O)(=O)c2ccc(NC(=S)NC(=O)/C=C/c3ccccc3)cc2)s1 | 29.1 µM [falling, single point] | 
29 | O=C(CSc1nncn1-c1cccnc1)N1CCOCC1 | 5.8 µM [rising, single point] | 
30 | COc1ccc(CC(=O)NC(C)c2nnc(SCCC(=O)Nc3ccccc3)n2C)cc1 (configuration not stated) | 0.282 µM [falling, full curve, poor fit] | 
31 | Cc1cccc(NC2=C(C#N)C(=O)NC3(CCCC3)S2)c1 |  | 25.1 µM [falling, partial curve, poor fit]
32 | COC(=O)CCCC(=O)Nc1ccc(Cl)c(Cl)c1 | 6.51 µM [rising, partial curve, poor fit] | 
33 | CCc1ccc(NC(=O)C2=CC=CN3CCS(=O)(=O)N=C23)cc1 | 13 µM [rising, partial curve] | 
34 | CCOc1ccc2nc(SC3CC(=O)N(c4ccc(OC)cc4OC)C3=O)sc2c1 (configuration not stated) | 8.91 µM [rising, partial curve, poor fit] | 3.16 µM [falling, partial curve, poor fit]
35 | O=C(/C=C/c1ccco1)Nc1nnc(-c2ccco2)s1 | 10 µM [falling, single point] | 
36 | Cc1ccc(CNC(=O)[C@H]2C[C@@H]2[C@H](NP(=O)(c2ccccc2)c2ccccc2)c2ccccc2)o1 | 8.2 µM [falling, partial curve] | 
37 | O=C1NC2(NN1c1ccccc1)C1CC3CC(C1)CC2C3 (configuration not stated) | 14.6 µM [rising, single point] | 
38 | COc1cc(OC)cc(C(=O)N[C@H](C(=O)NCc2ccccc2)C(C)C)c1 | 11.2 µM [rising, single point] | 
39 | c1ccc(Cn2nnc3c(N4CCc5ccccc5C4)ncnc32)cc1 |  | 11.2 µM [rising, partial curve, poor fit]
40 | O=C(/C=C/c1ccccc1Cl)c1cccnc1 | 32.6 µM [rising, single point] | 29.1 µM [falling, partial curve, poor fit]
41 | COc1cccc(C(=O)N2CCC(CCC(=O)Nc3cccc(C)c3)CC2)c1 | 1 µM [falling, full curve, poor fit] | 
42 | Cc1ccccc1C(=O)N/N=C/c1ccsc1C | 13 µM [falling, partial curve, poor fit] | 

Row | Structure (SMILES) | AC50 [1] | AC50 [2]
43 | CC(C)C[C@@H](COc1ccccc1)N1CCN(Cc2ccccc2)CCC1=O | 12.6 µM [falling, single point] | 
44 | CCc1nc2ccccc2c(C(=O)OCC(=O)NC(=O)c2cccn2C)c1C | 22.4 µM [falling, single point] | 
45 | CC(=O)N1c2ccc(C)cc2C(c2ccccc2)CC1C (configuration not stated) | 12.6 µM [rising, partial curve, poor fit] | 10 µM [falling, partial curve]
46 | CCOC(=O)N1CCN(/C=C(\C#N)c2nc3ccccc3s2)CC1 | 22.4 µM [falling, single point] | 
47 | CCOC(=O)c1c(CN(C)C)oc2cc(CN(C)C)c(O)c(CSc3ccccc3)c12 | 11.2 µM [falling, partial curve, poor fit] | 
48 | Cc1nc2ccc(NC(=S)NCc3ccccc3)cc2nc1C | 35.5 µM [falling, single point] | 
49 | COc1ccc(C(=O)NC2=NCCS2)c(OC)c1 | 35.5 µM [falling, single point] | 
50 | COc1ccc(S(=O)(=O)Oc2ccc3ccccc3c2)cc1 | 1.3 µM [rising, partial curve, poor fit] | 
51 | COc1ccc2cc(C(=O)C3CCCN(Cc4cnc(C)s4)C3)ccc2c1 (configuration not stated) | 7.94 µM [falling, partial curve] | 
52 | O=S(=O)(Nc1ccc(O)c(Sc2nc3ccccc3s2)c1)c1cccc2ccccc12 | 29.1 µM [falling, single point] | 
53 | Clc1cc(-c2ccc(/C=N/n3cnnc3)o2)ccc1Br | 7.08 µM [falling, full curve, poor fit] | 
54 | COc1ccc(OCCOc2ccc(C)nc2[N+](=O)[O-])cc1 | 1.84 µM [rising, full curve] | 
55 | Cc1cc(Oc2nc3c(C)cccn3c(=O)c2/C=C(\C#N)S(=O)(=O)c2ccccc2)ccc1Cl | 2.91 µM [falling, full curve] | 
56 | CCn1nnc2cc(C(=O)Nc3cc(S(C)(=O)=O)ccc3Cl)ccc21 | 20 µM [rising, partial curve, poor fit] | 
57 | COc1ccc(CCNC(=O)C(=O)NCCCN2CCOCC2)cc1 | 6.31 µM [falling, partial curve, poor fit] | 
58 | C(=N\Nc1nc(-c2ccccc2)cs1)/c1ccco1 | 7.31 µM [falling, partial curve] | 
59 | COc1cc(CNCCO)cc(Cl)c1OCc1ccccc1Cl | 22.4 µM [falling, single point] | 
60 | O=c1[nH]c(O)c(/C=C2\C=Nc3ccccc32)[nH]1 | 20 µM [falling, single point] | 
61 | O=[N+]([O-])c1ccc2[nH]ncc2c1 | 6.31 µM [rising, partial curve, poor fit] | 
